Laboratory results reported in patent publication US11987581B1 (KING FAISAL UNIVERSITY, priority 2023, dated 2024).

Test system: PC3 (prostate)
Assay: MTT in vitro cytotoxic activity, PC3
Type: cell-based
Conditions: Homo sapiens; 96 hours exposure; 50% inhibition of cell proliferation; read-out: Cytotoxicity activity IC50, PC3 (prostate)
Method: Compounds 1-16 were screened for their in vitro cytotoxic activity utilizing a 3-(4,5-dimethyl-thiazol-2-yl)-2,5-diphenyltetrazolium bromide (MTT) assay against selected cancer human cell lines consisting of PC3 (prostate), HCT116 (colon), A375 (melanoma), H1299 (lung), MIAPaCa-2 (pancreas), HL60 (leukemia), MCF7 (breast), MDA-MB-231 (breast) (T. Mosmann, J. Immunol. Meth., 1983, 65, 55-63). The cells were cultured at 37° C. in RMPI1640 medium supplemented with 10% fetal bovine serum, 50 IU/mL penicillin, and 50 μg/mL streptomycin in a 5% CO2 incubator. All cells were sub-cultured 3 times/week by trypsinisation. Viable cells were seeded and allowed to adhere for 12 hours before a test drug was added in 96-well plates at an initial density of 1.0×10^5 cells/mL. Tumor cell lines were separately exposed to various concentrations of the tested compounds followed by incubation at a temperature of 37° C. during 96 hours inside a medium of fresh RMPI 1640. Cells were subsequently incubated at 37° C. using MTT at 0.5 mg/mL during 4 hours. After removal of supernatant, formazan crystals were dissolved in isopropanol and the optical density was measured at 570 nm. CX-4945 was used as a positive control.

In the case of `O=C(O)c1ccc2c(c1)nc(Nc1cccc(Cl)c1)c1ccncc12` [CX-4945], the IC50 is reported as 2000 nM.
